Laboratory results taken from patent publication US20150376252A1.
No constants are given. Whether binding was seen depends on the method and setting. A result given as binding can be weak or reduced; the word gives no strength. Tags and fused reporters may be left off the sequences shown.

Target: Fz4-YN/Fz4-YC
Test: three-component split-YFP BRET in transfected COS-1 cells

B1: Tspan12-Rlu (human Tspan12 with Renilla luciferase at the C-terminus) (protein, UniProt O95859 1-305, looked up, not shown: large carriers)
chain: MAREDSVKCLRCLLYALNLLFWLMSISVLAVSAWMRDYLNNVLTLTAETRVEEAVILTYFPVVHPVMIAVCCFLIIVGMLGYCGTVKRNLLLLAWYFGSLLVIFCVELACGVWTYEQELMVPVQWSDMVTLKARMTNYGLPRYRWLTHAWNFFQREFKCCGVVYFTDWLEMTEMDWPPDSCCVREFPGCSKQAHQEDLSDLYQEGCGKKMYSFLRGTKQLQVLRFLGISIGVTQILAMILTITLLWALYYDRREPGTDQMMSLKNDNSQHLSCPSVELLKPSLSRIFEHTSMANSFNTHFEMEEL
With B1 the binding was “binds”.
